Laboratory results: doi:10.1101/2024.01.05.574393
No constants are given. Whether binding was seen depends on the method and setting. For some assays here: In cells and extracts the contact can be indirect. Some entries that bind do so weakly or less than the wild type.

Chains of the proteins cited; added tags and fusions are not shown.
UniProt Q8VHX6: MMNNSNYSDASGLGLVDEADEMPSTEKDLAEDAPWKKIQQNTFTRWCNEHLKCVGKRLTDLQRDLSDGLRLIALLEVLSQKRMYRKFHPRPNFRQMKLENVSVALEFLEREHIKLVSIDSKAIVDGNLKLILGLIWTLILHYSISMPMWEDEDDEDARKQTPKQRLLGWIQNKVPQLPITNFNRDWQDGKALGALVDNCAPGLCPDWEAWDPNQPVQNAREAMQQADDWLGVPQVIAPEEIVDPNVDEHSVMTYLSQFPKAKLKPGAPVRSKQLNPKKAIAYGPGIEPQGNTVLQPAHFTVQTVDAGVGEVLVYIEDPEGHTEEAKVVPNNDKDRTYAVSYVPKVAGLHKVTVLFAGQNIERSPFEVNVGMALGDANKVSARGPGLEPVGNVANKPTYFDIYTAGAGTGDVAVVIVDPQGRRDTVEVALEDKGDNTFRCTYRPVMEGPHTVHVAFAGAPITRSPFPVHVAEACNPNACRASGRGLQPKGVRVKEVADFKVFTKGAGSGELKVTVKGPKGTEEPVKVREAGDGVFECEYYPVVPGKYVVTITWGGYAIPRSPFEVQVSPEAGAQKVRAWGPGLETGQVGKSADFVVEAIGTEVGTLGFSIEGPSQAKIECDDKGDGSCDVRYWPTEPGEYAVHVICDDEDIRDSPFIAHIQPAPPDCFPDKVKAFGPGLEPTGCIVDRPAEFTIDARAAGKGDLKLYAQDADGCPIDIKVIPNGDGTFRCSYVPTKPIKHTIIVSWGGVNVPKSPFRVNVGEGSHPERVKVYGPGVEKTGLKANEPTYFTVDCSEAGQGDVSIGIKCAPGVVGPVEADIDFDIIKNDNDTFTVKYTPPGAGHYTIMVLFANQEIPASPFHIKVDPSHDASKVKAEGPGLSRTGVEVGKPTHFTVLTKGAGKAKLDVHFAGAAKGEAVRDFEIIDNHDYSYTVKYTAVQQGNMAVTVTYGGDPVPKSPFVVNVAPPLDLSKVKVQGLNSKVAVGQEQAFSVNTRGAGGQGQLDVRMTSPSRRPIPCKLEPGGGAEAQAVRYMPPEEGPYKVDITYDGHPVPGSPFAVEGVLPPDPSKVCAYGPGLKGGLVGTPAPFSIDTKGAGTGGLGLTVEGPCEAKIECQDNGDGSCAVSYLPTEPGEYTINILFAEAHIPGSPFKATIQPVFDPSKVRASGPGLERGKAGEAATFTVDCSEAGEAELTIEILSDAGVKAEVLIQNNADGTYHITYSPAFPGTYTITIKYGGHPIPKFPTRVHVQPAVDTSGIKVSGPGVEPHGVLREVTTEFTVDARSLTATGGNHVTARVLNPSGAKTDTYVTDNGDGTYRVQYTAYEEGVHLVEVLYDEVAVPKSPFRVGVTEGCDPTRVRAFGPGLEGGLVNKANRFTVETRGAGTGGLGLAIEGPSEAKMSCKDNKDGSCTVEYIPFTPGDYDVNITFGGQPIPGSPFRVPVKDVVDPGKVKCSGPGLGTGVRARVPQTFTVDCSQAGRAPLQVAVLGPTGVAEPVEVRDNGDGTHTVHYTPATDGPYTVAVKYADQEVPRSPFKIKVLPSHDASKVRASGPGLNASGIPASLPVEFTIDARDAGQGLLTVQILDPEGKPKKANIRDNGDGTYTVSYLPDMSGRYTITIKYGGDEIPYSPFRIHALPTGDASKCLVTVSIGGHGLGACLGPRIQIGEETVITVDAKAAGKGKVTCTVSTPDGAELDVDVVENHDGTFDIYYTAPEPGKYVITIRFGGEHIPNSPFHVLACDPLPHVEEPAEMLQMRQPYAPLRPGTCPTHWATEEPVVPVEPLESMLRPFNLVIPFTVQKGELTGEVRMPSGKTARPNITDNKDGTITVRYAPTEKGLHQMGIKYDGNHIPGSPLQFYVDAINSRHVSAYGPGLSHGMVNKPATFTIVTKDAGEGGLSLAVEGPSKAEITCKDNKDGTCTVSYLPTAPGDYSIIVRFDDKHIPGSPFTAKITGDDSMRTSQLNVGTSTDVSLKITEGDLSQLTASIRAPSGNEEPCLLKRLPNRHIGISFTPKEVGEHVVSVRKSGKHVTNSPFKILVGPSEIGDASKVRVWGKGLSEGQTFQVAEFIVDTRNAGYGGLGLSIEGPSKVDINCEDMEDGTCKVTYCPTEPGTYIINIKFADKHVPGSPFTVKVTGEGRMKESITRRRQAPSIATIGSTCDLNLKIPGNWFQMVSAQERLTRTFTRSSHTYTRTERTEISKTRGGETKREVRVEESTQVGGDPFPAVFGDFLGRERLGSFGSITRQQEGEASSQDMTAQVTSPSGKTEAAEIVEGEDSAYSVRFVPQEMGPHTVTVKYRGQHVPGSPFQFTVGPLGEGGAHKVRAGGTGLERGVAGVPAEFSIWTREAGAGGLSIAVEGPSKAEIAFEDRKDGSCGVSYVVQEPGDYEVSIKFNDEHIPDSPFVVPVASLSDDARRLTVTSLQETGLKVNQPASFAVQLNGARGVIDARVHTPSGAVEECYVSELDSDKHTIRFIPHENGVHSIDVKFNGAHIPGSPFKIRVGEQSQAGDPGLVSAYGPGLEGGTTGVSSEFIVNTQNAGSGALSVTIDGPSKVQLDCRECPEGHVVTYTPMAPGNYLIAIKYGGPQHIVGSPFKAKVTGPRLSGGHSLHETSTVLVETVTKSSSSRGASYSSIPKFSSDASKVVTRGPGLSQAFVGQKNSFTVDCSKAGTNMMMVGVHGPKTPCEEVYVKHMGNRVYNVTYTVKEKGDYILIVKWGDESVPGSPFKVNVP
UniProt P35385: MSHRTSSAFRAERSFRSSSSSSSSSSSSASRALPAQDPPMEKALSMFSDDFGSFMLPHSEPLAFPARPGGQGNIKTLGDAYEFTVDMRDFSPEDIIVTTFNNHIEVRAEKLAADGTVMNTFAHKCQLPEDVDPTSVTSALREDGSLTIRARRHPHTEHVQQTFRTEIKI

Key:
[1] = target: filamin C (FLNC), endogenous in mouse ventricular tissue (mouse (endogenous in ventricular tissue)) (UniProt Q8VHX6); assay: co-IP
[2] = target: HSPB7ΔN (residues 78-175 of isoform 2) (human) (UniProt Q9UBY9); assay: native MS

| Substance | binding [1] | binding [2] |
| --- | --- | --- |
| HSPB7, endogenous in mouse ventricular tissue (from UniProt P35385 1-169) | binds | – |
| HSPB7ΔN (residues 78-175 of isoform 2) (from UniProt Q9UBY9-2 78-175) (domain or fragment) | – | no binding (tested: ~10 μM) |
